# PubChem BioAssay AID1259254, NCATS – 2017
# Screen: 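Finding genes that stop cells copying their DNA twice in one cycle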 (primary screen)
# Cell system: human HCT116 colorectal cancer cells
# Knock-down reagent: single siRNA against human genes
# Timing: 3 days
# Measurement: 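Imaged Hoechst DNA stain sorts each cell into a cycle phase by DNA amount; per plate, G2 fraction set to 0% for non-targeting and 100% for GMNN siRNA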
# Reading the numbers: G2 robust z-score and G2 cells, % of GMNN control: higher = more G2 cells, more excess DNA replication; raw share of cells in G2: higher = larger share of cells with G2 DNA content
# Call rule: 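Active siRNAs have a G2 robust z of 5 or more median absolute deviations over the median, which in these data means about 38% or higher of GMNN control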
# This is a random part of about 59,000 deposited reagents. Of all reagents, about 1,550 (2.6%) got an active call. 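G2 share is only a proxy for re-replication; each gene was hit by three separate siRNAs, and active genes were retested.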 Raw values are not corrected between plates. Entries without a mark were called inactive. The numbers tell different reagents against one gene apart. Not given: the amount of reagent.
gene,siRNA no.,G2 robust z-score,"G2 cells, % of GMNN control",raw share of cells in G2 (%)
KCNK2 (GeneID 3776),1,1.77,15.4,10.9
KCNK2 (GeneID 3776),2,0.197,4.36,6.26
KCNK2 (GeneID 3776),3,-0.63,-1.47,3.8
HOXA4 (GeneID 3201),1,5.03 (active),38.4,19
HOXA4 (GeneID 3201),2,-0.795,-2.62,4.68
HOXA4 (GeneID 3201),3,2.72,22.1,12.3
RPSAP12 (GeneID 387867),1,8.57 (active),63.3,25.5
RPSAP12 (GeneID 387867),2,7.21 (active),53.7,26.8
RPSAP12 (GeneID 387867),3,2.62,21.4,13.8
TMEM134 (GeneID 80194),1,-0.667,-1.72,1.91
TMEM134 (GeneID 80194),2,4.01,31.2,17.4
TMEM134 (GeneID 80194),3,0.593,7.14,7.42
OR13A1 (GeneID 79290),1,0.296,5.05,6.78
OR13A1 (GeneID 79290),2,4.82,36.9,21.1
OR13A1 (GeneID 79290),3,-0.918,-3.49,1.78
CYP2R1 (GeneID 120227),1,0.072,3.47,6.46
CYP2R1 (GeneID 120227),2,-0.00699,2.92,7.03
CYP2R1 (GeneID 120227),3,-1.12,-4.92,2.62
GNRHR (GeneID 2798),1,0.959,9.72,9.32
GNRHR (GeneID 2798),2,0.771,8.39,7.45
GNRHR (GeneID 2798),3,0.479,6.34,5.21
CALD1 (GeneID 800),1,-0.243,1.26,5.89
CALD1 (GeneID 800),2,0.0453,3.29,5.29
CALD1 (GeneID 800),3,0.278,4.92,5.45
SNPH (GeneID 9751),1,-0.496,-0.524,5.09
SNPH (GeneID 9751),2,-0.234,1.32,4.5
SNPH (GeneID 9751),3,1.12,10.9,7.36
PCDHB6 (GeneID 56130),1,4.31,33.3,18.2
PCDHB6 (GeneID 56130),2,3,24.1,13.1
PCDHB6 (GeneID 56130),3,2.45,20.2,15.3
C16orf78 (GeneID 123970),1,0.0142,3.07,5.32
C16orf78 (GeneID 123970),2,-0.357,0.456,3.47
C16orf78 (GeneID 123970),3,-0.4,0.151,1.86
GDF9 (GeneID 2661),1,0.252,4.74,7.52
GDF9 (GeneID 2661),2,5.73 (active),43.3,19.9
GDF9 (GeneID 2661),3,-1,-4.09,1.92
SLC4A2 (GeneID 6522),1,2.31,19.2,11.1
SLC4A2 (GeneID 6522),2,4.93,37.7,16.4
SLC4A2 (GeneID 6522),3,0.812,8.68,8.6
GPS1 (GeneID 2873),1,1.06,10.4,7.36
GPS1 (GeneID 2873),2,0.43,5.99,7.41
GPS1 (GeneID 2873),3,1.18,11.2,9.54
TAT (GeneID 6898),1,-0.25,1.21,4.55
TAT (GeneID 6898),2,0.781,8.46,7.91
TAT (GeneID 6898),3,-0.481,-0.414,4.84
GPC5 (GeneID 2262),1,-0.757,-2.36,4.19
GPC5 (GeneID 2262),2,-1.14,-5.06,2.24
GPC5 (GeneID 2262),3,1.19,11.3,7.97
SLC7A3 (GeneID 84889),1,3.18,25.4,17.5
SLC7A3 (GeneID 84889),2,2.08,17.6,12.5
SLC7A3 (GeneID 84889),3,-0.183,1.68,5.11
BRPF1 (GeneID 7862),1,-0.821,-2.81,3.22
BRPF1 (GeneID 7862),2,4.56,35.1,20.4
BRPF1 (GeneID 7862),3,0.209,4.44,5.94
MTNR1A (GeneID 4543),1,-0.687,-1.87,3.86
MTNR1A (GeneID 4543),2,-1.41,-6.96,3.35
MTNR1A (GeneID 4543),3,0.602,7.2,5.48
SPMIP5 (GeneID 143379),1,-0.489,-0.477,2.9
SPMIP5 (GeneID 143379),2,-0.52,-0.692,3.6
SPMIP5 (GeneID 143379),3,-1,-4.08,1.65
E2F5 (GeneID 1875),1,-0.572,-1.05,4.86
E2F5 (GeneID 1875),2,-0.396,0.181,3.72
E2F5 (GeneID 1875),3,4.23,32.7,17.1
LOC728660 (GeneID 728660),1,-0.225,1.39,4.46
LOC728660 (GeneID 728660),2,-0.896,-3.34,2.24
LOC728660 (GeneID 728660),3,1.41,12.9,8.12
LRRC3 (GeneID 81543),1,-1.1,-4.74,3.46
LRRC3 (GeneID 81543),2,-1.23,-5.68,2.68
LRRC3 (GeneID 81543),3,7 (active),52.2,23.1
CYP2U1 (GeneID 113612),1,2.02,17.2,11
CYP2U1 (GeneID 113612),2,3.17,25.3,17.4
CYP2U1 (GeneID 113612),3,-0.396,0.184,5.05
AVPR2 (GeneID 554),1,-0.912,-3.45,4.61
AVPR2 (GeneID 554),2,1.15,11.1,6.67
AVPR2 (GeneID 554),3,0.336,5.33,6.38
OR51A7 (GeneID 119687),1,1.24,11.7,8.78
OR51A7 (GeneID 119687),2,-0.241,1.27,3.71
OR51A7 (GeneID 119687),3,0.743,8.2,4.21
LYSMD2 (GeneID 256586),1,0.813,8.69,6.73
LYSMD2 (GeneID 256586),2,-0.201,1.55,3.66
LYSMD2 (GeneID 256586),3,-0.221,1.41,3.64
FCN3 (GeneID 8547),1,-0.647,-1.58,3
FCN3 (GeneID 8547),2,0.0155,3.08,7.36
FCN3 (GeneID 8547),3,-0.578,-1.1,2.88
NUP35 (GeneID 129401),1,1.85,16,10.2
NUP35 (GeneID 129401),2,0.283,4.96,4.68
NUP35 (GeneID 129401),3,0.949,9.65,6.08

Reagents above called active (5):
gene,siRNA no.,G2 robust z-score,"G2 cells, % of GMNN control",raw share of cells in G2 (%)
HOXA4 (GeneID 3201),1,5.03 (active),38.4,19
RPSAP12 (GeneID 387867),1,8.57 (active),63.3,25.5
RPSAP12 (GeneID 387867),2,7.21 (active),53.7,26.8
GDF9 (GeneID 2661),2,5.73 (active),43.3,19.9
LRRC3 (GeneID 81543),3,7 (active),52.2,23.1
